We go through 1 molecule from patent US20200109207A1.

These are yes or no findings as the source states them, for the method shown. Binding can be weak; no strength is given.

The target of test [1] is recombinant cynomolgus CD27-FLAG-HIS (cynomolgus). The test is described as follows: ELISA, plate coated with recombinant cynomolgus CD27-FLAG-HIS; hybridoma supernatants. (In general: In an ELISA, binding on a coated surface is turned into a signal by an enzyme label.)
For test [2] the target is unchanged. The test is described as follows: ELISA, plate coated with recombinant cynomolgus CD27-FLAG-HIS; hybridoma supernatants, anti-rat IgG Fc-HRP detection.

B1: anti-CD27 human monoclonal antibody 2B3 (antibody, V domains shown)
VH: QVQLVQSGAEVKKPGASVKVSCKASGYTFTGYYIHWVRQAPGQGLEWMGWINPNSGGTNSAQKFQDRVTITRVTSINTAYMELSRLRSDDTAVYFCARDRLVLPWFGEIFPDAFDIWGQGTLVTVSS
VL: EIVMTQSPATLSVSPGERATLSCRASQSIRSNLAWYQQKPGQAPRLLIYGASTRATGIPARFSGSGSGTEFTLTISSLQSENFAVYYCQQYNNWPLTFGGGTKVEIK
Consider B1, for which the binding entry in test [1] and in test [2] was “binds” each time.
